The list shows a part of the results.
Key:
Assay in all cases: log2 fold change, soluble protein after heating vs DMSO (PISA); higher = thermal stabilisation; K562 cells, 10 uM, 30 min; active = over 0.2 and 3.5 SD of the protein, either way, in both replicates (recomputed)
[1] = compound: COC1=CC=C(C=C1)CN2C=CC3=C2C=C(C=C3)C(=O)NO
In short: (§1)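 Soluble protein was defined as the supernatant after 21,000xg for 90 min. It came from K562 cells at 2×10^6 cells/mL given 10 μM compound for 30 min, heated in aliquots for 3 min across 48°C-58°C, pooled, and extracted in PBS with 0.5% NP-40 at 4°C, and was quantified by TMTpro 16plex LC-MS/MS with equalised channel sums. Thermal stability against control samples, from duplicates, is reported as log2 fold change.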

The chains behind the UniProt entries cited, without tags or fusion partners. Where a name states a change or a piece, a line headed by the entry shows the natural chain unless it says otherwise.
UniProt Q5TKA1: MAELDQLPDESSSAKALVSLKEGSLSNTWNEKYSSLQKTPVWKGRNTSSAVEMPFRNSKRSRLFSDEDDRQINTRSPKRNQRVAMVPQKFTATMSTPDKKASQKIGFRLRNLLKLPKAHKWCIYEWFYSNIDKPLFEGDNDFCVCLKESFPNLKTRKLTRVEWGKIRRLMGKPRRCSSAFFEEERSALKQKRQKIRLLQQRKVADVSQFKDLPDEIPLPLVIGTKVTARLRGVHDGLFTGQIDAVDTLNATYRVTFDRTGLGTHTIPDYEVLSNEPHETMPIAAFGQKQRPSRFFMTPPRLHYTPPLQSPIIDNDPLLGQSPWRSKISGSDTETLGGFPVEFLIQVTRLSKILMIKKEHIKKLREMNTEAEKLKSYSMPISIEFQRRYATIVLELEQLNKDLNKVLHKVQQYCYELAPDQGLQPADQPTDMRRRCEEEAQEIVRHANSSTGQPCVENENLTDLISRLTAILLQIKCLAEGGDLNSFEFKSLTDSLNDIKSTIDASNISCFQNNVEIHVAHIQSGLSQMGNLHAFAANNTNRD
UniProt P13796: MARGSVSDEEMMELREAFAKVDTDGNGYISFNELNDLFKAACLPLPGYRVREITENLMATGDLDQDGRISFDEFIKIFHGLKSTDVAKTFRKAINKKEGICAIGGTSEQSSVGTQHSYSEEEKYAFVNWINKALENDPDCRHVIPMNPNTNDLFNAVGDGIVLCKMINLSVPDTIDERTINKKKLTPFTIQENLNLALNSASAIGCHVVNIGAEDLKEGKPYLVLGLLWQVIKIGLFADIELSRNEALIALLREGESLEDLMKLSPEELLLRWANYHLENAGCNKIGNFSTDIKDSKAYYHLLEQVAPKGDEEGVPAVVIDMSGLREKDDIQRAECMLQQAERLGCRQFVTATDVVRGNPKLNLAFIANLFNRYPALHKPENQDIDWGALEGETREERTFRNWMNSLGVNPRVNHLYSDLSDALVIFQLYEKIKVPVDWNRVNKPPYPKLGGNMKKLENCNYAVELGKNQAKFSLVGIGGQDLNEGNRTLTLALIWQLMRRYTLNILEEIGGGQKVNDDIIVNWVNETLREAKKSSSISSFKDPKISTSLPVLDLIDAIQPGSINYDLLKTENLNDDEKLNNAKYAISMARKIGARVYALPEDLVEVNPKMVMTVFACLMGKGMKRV
UniProt Q9Y2Q5, whole entry, looked up: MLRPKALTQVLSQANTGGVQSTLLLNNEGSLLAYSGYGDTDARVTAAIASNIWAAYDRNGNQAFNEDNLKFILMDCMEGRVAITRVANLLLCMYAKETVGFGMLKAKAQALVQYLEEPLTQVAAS
UniProt P53671: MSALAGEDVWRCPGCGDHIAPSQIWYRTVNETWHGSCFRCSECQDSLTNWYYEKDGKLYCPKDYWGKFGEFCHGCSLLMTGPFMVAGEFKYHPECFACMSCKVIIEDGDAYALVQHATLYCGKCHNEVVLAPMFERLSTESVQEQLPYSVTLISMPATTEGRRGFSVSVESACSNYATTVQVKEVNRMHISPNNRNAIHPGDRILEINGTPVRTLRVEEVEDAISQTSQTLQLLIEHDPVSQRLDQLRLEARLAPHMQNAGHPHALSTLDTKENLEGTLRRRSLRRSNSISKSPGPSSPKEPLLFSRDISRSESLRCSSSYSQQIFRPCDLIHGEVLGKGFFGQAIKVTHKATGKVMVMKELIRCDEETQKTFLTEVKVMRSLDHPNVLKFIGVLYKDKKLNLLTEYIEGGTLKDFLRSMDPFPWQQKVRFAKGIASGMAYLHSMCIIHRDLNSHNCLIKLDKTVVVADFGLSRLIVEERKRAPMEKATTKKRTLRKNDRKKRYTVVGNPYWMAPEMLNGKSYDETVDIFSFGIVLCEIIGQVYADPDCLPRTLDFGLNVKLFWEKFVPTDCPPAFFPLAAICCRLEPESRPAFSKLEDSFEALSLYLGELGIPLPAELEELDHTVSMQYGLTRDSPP
UniProt Q7Z4F1: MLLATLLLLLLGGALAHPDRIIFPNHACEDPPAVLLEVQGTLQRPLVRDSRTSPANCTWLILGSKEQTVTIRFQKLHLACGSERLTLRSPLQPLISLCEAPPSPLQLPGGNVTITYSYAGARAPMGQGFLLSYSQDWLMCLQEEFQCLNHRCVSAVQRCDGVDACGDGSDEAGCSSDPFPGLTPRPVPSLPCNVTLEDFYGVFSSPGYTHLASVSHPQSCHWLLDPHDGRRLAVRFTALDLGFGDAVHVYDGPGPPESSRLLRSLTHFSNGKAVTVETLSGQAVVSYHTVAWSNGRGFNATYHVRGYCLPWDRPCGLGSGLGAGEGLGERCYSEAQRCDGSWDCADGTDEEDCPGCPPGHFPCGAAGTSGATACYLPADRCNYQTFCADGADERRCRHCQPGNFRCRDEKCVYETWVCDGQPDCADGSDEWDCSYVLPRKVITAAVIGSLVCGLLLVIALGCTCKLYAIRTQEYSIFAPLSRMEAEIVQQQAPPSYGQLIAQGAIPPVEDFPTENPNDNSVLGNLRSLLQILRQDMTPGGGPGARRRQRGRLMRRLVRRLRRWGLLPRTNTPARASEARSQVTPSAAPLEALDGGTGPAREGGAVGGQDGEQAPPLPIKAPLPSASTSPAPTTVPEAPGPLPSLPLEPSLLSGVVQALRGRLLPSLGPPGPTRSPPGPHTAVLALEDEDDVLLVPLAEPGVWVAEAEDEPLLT
UniProt Q6IAA8, whole entry, looked up: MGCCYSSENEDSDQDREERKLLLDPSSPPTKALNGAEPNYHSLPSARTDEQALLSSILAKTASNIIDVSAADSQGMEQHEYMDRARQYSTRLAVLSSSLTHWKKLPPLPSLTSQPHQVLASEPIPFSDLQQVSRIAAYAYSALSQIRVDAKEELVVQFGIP
UniProt Q68DH5: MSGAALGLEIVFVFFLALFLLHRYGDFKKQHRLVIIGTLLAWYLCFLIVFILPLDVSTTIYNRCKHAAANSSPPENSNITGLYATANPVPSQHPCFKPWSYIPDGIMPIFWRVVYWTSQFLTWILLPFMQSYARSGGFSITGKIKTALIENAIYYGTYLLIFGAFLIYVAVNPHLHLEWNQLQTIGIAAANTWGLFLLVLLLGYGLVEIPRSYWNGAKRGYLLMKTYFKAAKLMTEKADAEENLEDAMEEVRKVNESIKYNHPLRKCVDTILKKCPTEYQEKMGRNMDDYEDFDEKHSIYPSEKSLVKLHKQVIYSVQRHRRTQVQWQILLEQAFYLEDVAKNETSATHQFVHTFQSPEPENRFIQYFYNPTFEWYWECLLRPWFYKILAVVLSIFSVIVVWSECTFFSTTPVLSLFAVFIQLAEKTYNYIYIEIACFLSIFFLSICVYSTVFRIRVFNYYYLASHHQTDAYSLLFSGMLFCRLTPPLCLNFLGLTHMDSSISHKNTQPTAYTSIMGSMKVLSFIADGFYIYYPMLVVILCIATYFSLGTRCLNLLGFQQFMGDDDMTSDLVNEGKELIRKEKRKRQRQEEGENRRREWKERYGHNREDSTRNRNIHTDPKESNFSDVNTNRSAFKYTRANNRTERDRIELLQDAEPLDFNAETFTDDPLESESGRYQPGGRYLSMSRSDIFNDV
UniProt Q9UN81: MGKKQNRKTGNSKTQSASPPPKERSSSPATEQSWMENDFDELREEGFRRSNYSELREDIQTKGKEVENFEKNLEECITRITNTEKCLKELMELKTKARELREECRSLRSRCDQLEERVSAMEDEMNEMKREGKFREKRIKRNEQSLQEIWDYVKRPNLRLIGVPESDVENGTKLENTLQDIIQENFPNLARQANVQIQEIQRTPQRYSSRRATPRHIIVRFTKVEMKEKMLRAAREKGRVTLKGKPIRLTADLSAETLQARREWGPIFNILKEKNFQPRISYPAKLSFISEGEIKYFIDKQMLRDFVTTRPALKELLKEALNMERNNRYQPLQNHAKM
UniProt Q14847: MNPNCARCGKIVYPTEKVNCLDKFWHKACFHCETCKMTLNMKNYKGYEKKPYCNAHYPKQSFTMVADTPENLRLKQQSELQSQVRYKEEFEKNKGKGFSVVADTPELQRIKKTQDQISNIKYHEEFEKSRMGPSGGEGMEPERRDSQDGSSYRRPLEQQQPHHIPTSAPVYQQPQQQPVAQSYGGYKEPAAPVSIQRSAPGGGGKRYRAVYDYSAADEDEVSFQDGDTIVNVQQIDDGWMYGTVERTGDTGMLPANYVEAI
UniProt Q6UWP7: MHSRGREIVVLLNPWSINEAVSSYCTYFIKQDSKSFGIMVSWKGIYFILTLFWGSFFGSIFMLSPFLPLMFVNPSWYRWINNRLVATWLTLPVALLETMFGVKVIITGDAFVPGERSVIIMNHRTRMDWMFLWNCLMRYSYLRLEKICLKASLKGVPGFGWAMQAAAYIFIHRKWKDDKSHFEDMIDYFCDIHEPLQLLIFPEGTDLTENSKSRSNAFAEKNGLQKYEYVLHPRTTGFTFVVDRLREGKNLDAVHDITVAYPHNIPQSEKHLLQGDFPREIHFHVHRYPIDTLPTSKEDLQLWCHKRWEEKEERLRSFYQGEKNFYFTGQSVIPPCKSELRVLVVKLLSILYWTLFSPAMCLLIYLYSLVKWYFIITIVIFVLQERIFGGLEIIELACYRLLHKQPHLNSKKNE
UniProt Q92604: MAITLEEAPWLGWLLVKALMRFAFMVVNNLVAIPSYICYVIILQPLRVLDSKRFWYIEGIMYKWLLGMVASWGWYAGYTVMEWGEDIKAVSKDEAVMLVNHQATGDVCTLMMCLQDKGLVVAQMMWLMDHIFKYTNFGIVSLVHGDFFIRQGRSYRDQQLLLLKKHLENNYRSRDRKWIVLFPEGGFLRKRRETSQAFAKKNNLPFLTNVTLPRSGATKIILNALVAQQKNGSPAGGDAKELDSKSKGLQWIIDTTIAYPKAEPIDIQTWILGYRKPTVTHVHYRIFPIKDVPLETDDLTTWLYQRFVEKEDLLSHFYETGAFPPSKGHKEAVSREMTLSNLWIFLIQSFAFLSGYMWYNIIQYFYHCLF
UniProt Q8TCA0: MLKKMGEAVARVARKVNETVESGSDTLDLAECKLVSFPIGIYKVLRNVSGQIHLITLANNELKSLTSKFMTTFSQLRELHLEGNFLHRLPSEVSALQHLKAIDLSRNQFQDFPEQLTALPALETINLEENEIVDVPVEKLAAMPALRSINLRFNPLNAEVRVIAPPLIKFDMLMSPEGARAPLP
UniProt Q5T3J3: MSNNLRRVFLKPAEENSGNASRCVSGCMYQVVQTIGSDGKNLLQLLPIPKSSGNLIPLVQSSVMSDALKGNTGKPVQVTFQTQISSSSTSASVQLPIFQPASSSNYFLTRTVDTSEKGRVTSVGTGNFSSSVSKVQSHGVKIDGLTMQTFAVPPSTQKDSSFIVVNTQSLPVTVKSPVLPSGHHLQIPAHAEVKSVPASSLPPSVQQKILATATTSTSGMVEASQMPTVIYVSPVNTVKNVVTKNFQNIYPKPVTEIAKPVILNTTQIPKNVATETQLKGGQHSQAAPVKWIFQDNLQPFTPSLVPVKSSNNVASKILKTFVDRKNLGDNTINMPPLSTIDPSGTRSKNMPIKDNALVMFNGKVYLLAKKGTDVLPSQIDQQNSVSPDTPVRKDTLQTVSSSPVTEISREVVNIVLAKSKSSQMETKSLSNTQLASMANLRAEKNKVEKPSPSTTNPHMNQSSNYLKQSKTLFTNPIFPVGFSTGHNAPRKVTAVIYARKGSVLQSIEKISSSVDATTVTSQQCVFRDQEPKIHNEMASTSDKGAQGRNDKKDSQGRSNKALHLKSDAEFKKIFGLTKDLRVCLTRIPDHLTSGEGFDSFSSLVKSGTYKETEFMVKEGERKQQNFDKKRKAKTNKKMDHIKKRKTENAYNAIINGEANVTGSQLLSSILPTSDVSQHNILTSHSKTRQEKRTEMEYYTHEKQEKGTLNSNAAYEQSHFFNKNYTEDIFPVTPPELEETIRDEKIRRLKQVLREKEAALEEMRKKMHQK
UniProt Q9NS86: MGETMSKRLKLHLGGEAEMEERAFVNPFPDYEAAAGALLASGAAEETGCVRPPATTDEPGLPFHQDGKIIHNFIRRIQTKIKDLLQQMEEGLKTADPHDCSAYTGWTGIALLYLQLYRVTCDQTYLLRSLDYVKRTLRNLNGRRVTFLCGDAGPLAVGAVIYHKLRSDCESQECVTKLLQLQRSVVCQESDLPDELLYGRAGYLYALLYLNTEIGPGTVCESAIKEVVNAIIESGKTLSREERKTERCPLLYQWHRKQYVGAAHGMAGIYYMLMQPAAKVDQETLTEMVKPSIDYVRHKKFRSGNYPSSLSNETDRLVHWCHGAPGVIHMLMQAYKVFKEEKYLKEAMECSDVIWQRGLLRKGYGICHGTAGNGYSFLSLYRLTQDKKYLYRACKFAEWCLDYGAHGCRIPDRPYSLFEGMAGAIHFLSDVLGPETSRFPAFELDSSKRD
UniProt Q53H82: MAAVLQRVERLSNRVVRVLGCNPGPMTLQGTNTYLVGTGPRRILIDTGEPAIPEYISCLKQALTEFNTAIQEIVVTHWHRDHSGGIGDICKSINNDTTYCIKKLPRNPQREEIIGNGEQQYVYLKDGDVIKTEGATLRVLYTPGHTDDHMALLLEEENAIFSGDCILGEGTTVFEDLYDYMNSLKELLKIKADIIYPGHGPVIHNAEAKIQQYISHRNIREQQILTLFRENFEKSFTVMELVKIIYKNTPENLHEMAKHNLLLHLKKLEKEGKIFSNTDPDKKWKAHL

filanesib = compound: CON(C)C(=O)N1N=C(c2cc(F)ccc2F)S[C@@]1(CCCN)c1ccccc1 [filanesib]
In short: as §1

zotarolimus = compound: CO[C@H]1C[C@@H]2CC[C@@H](C)[C@@](O)(O2)C(=O)C(=O)N2CCCC[C@H]2C(=O)O[C@H]([C@H](C)C[C@@H]2CC[C@H](n3cnnn3)[C@H](OC)C2)CC(=O)[C@H](C)/C=C(\C)[C@@H](O)[C@@H](OC)C(=O)[C@H](C)C[C@H](C)/C=C/C=C/C=C/1C [zotarolimus]
In short: as §1

idasanutlin = compound: COc1cc(C(=O)O)ccc1NC(=O)[C@@H]1N[C@@H](CC(C)(C)C)[C@](C#N)(c2ccc(Cl)cc2F)[C@H]1c1cccc(Cl)c1F [idasanutlin]
In short: as §1

alisertib = compound: COc1cc(Nc2ncc3c(n2)-c2ccc(Cl)cc2C(c2c(F)cccc2OC)=NC3)ccc1C(=O)O [alisertib]
In short: as §1

[2] = compound: COc1cc2nc(-c3cc(F)ccc3O)nc(N[C@@H]3CNC[C@H]3C(C)(C)O)c2cc1OC
In short: as §1

gefitinib = compound: COc1cc2ncnc(Nc3ccc(F)c(Cl)c3)c2cc1OCCCN1CCOCC1 [gefitinib]
In short: as §1

[3] = compound: COc1cccc2cc(-c3nc([C@H]4CC[C@H](C(=O)O)CC4)n4ncnc(N)c34)[nH]c12
In short: as §1

lapatinib = compound: CS(=O)(=O)CCNCc1ccc(-c2ccc3ncnc(Nc4ccc(OCc5cccc(F)c5)c(Cl)c4)c3c2)o1 [lapatinib]
In short: as §1

pictilisib = compound: CS(=O)(=O)N1CCN(Cc2cc3nc(-c4cccc5[nH]ncc45)nc(N4CCOCC4)c3s2)CC1 [pictilisib]
In short: as §1

Measured: log2 fold change

LDLRAP1 (UniProt Q5SW96)
inactive: [1] 0.023

LHPP (UniProt Q9H008)
inactive: [1] -0.067 | filanesib 0.036 | zotarolimus 0.06 | idasanutlin -0.103 | alisertib 0.016 | [2] 0.113 | gefitinib -0.042 | [3] 0.064 | lapatinib -0.12 | pictilisib 0.042

LRPPRC (UniProt P42704)
inactive: [1] 0.303 | filanesib -0.788 | zotarolimus -0.02 | idasanutlin 0 | alisertib 0.207 | [2] -0.638 | gefitinib -0.189 | [3] 0.119 | lapatinib -0.091 | pictilisib -0.119

LIN7A (UniProt O14910)
inactive: [1] -0.123 | filanesib 0.007 | zotarolimus -0.033 | idasanutlin 0.029 | alisertib -0.009 | [2] -0.145 | gefitinib 0.053 | [3] 0.026 | lapatinib 0.024

LIMS1 (UniProt P48059)
inactive: [1] 0.093

LARP1 (UniProt Q6PKG0)
inactive: [1] 0 | filanesib 0.048 | zotarolimus -0.048 | idasanutlin 0.089 | alisertib 0.137 | [2] -0.001 | gefitinib -0.049 | [3] -0.161 | lapatinib 0.023 | pictilisib -0.152

LEMD3 (UniProt Q9Y2U8)
inactive: [1] 0.036 | filanesib 0 | zotarolimus 0.107 | idasanutlin -0.023 | alisertib 0.073 | [2] -0.001 | gefitinib -0.013 | [3] 0.069 | lapatinib 0.044 | pictilisib 0.047

LIN9 isoform 2 (UniProt Q5TKA1)
inactive: [1] -0.12 | filanesib 0.022 | zotarolimus -0.038 | idasanutlin 0.012

LCP1 (UniProt P13796)
inactive: [1] -0.006 | filanesib -0.017 | zotarolimus 0.013 | idasanutlin 0.026 | alisertib -0.047 | [2] -0.008 | gefitinib -0.004 | [3] 0.037 | lapatinib -0.039 | pictilisib 0.027

LIG1 (UniProt P18858)
inactive: [1] 0.103 | filanesib -0.144 | zotarolimus 0.071 | idasanutlin -0.099 | alisertib -0.051 | [2] 0.065 | gefitinib 0.063 | [3] 0.022 | lapatinib -0.032 | pictilisib 0.082

LAMTOR2 (UniProt Q9Y2Q5)
inactive: [1] -0.029 | filanesib -0.075 | zotarolimus -0.062 | idasanutlin 0.077 | alisertib 0.03 | [2] -0.123 | gefitinib 0.061 | [3] -0.127 | lapatinib 0.005 | pictilisib -0.141

LIMK2 isoform 3 (UniProt P53671)
inactive: [1] 0.029 | filanesib 0.146 | zotarolimus -0.111 | idasanutlin 0.107 | alisertib 0.12 | [2] 0.138 | gefitinib -0.018 | [3] 0.121 | lapatinib -0.346 | pictilisib 0.178

LRP10 (UniProt Q7Z4F1)
inactive: [1] 0.141 | filanesib -0.052 | zotarolimus -0.032 | idasanutlin 0.009 | alisertib 0.101 | [2] -0.224 | gefitinib -0.053 | [3] 0.117 | lapatinib 0.088

Fetched one by one from the list above (two):
LCP1 (UniProt P13796)
inactive: [1] -0.006 | filanesib -0.017 | zotarolimus 0.013 | idasanutlin 0.026 | alisertib -0.047 | [2] -0.008 | gefitinib -0.004 | [3] 0.037 | lapatinib -0.039 | pictilisib 0.027

LRP10 (UniProt Q7Z4F1)
inactive: [1] 0.141 | filanesib -0.052 | zotarolimus -0.032 | idasanutlin 0.009 | alisertib 0.101 | [2] -0.224 | gefitinib -0.053 | [3] 0.117 | lapatinib 0.088

Further results follow.

LAMTOR4 (UniProt Q0VGL1)
inactive: [1] 0.032 | filanesib -0.066 | zotarolimus -0.028 | idasanutlin 0.06 | alisertib -0.068 | [2] -0.143 | gefitinib -0.011 | [3] -0.212 | lapatinib 0.032 | pictilisib -0.2

LIMD1 (UniProt Q9UGP4)
inactive: [1] 0.027 | filanesib -0.007 | zotarolimus 0.028 | idasanutlin 0.028 | alisertib -0.059 | [2] 0 | gefitinib -0.078 | [3] -0.01 | lapatinib 0.06 | pictilisib -0.043

LPCAT3 (UniProt Q6P1A2)
active: filanesib -0.352
inactive: [1] -0.067 | zotarolimus -0.065 | idasanutlin -0.086 | alisertib -0.055 | [2] -0.117 | gefitinib -0.024 | [3] -0.017 | lapatinib 0.172 | pictilisib -0.011

LAMTOR1 (UniProt Q6IAA8)
inactive: [1] 0.139 | filanesib -0.051 | zotarolimus 0.036 | idasanutlin 0 | alisertib -0.111 | [2] -0.151 | gefitinib -0.008 | [3] -0.237 | lapatinib 0.011 | pictilisib -0.126

LMBRD2 (UniProt Q68DH5)
inactive: [1] -0.031 | filanesib -0.095 | zotarolimus 0.108 | idasanutlin -0.012 | alisertib -0.035 | [2] 0.025 | gefitinib 0.082 | [3] -0.021 | lapatinib 0.026 | pictilisib 0.057

LRRC59 (UniProt Q96AG4)
inactive: [1] 0.064 | filanesib -0.029 | zotarolimus 0.004 | idasanutlin 0.034 | alisertib -0.047 | [2] 0.017 | gefitinib 0.014 | [3] -0.03 | lapatinib -0.064 | pictilisib 0.01

L1RE1 (UniProt Q9UN81)
inactive: [1] -0.058 | filanesib 0.018 | zotarolimus -0.026 | idasanutlin 0.087 | alisertib -0.328 | [2] 0 | gefitinib -0.021 | [3] 0.122 | lapatinib 0.012

LASP1 (UniProt Q14847)
inactive: [1] 0.056 | filanesib -0.011 | zotarolimus -0.02 | idasanutlin -0.011 | alisertib -0.032 | [2] -0.023 | gefitinib 0.004 | [3] 0.012 | lapatinib -0.014 | pictilisib -0.002

L2HGDH (UniProt Q9H9P8)
inactive: [1] 0.096 | filanesib -0.121 | zotarolimus 0.07 | idasanutlin -0.037 | alisertib -0.019 | [2] -0.034 | gefitinib -0.01 | [3] 0.041 | lapatinib -0.069 | pictilisib 0.115

LCLAT1 (UniProt Q6UWP7)
inactive: [1] 0.039 | filanesib -0.006 | zotarolimus -0.02 | idasanutlin -0.008 | alisertib 0.007 | [2] 0.144 | gefitinib -0.025 | [3] 0.012 | lapatinib 0.005 | pictilisib -0.02

LPGAT1 (UniProt Q92604)
inactive: [1] 0.124 | filanesib -0.021 | zotarolimus 0.001 | idasanutlin -0.098 | alisertib 0.032 | [2] -0.082 | gefitinib -0.059 | [3] 0.12 | lapatinib 0.15

LARS (UniProt Q9P2J5)
inactive: [1] -0.017 | filanesib 0.262 | zotarolimus 0.067 | idasanutlin 0.18 | alisertib -0.109 | [2] -0.002 | gefitinib -0.007 | [3] -0.213 | lapatinib 0.035 | pictilisib -0.1

LENG1 (UniProt Q96BZ8)
inactive: [1] -0.062 | filanesib 0.025 | zotarolimus -0.05 | idasanutlin 0.006 | alisertib -0.108 | [2] 0.036 | gefitinib -0.018 | [3] 0.071 | lapatinib -0.003 | pictilisib 0.032

LRRC20 (UniProt Q8TCA0)
inactive: [1] 0.022 | filanesib -0.046 | zotarolimus -0.017 | idasanutlin -0.071 | alisertib -0.083 | [2] 0.069 | gefitinib 0.092 | [3] 0.055 | lapatinib -0.011 | pictilisib -0.175

LRIF1 (UniProt Q5T3J3)
inactive: [1] -0.004 | filanesib -0.004 | zotarolimus 0.034 | idasanutlin 0 | alisertib -0.042 | [2] -0.015 | gefitinib 0.004 | [3] 0.061 | lapatinib 0.035 | pictilisib 0.001

LANCL2 (UniProt Q9NS86)
inactive: [1] -0.019 | filanesib -0.011 | zotarolimus -0.021 | idasanutlin -0.019 | alisertib -0.095 | [2] 0.06 | gefitinib 0.008 | [3] 0.051 | lapatinib -0.019 | pictilisib -0.071

KTN1 (UniProt Q86UP2)
inactive: [1] 0.023 | filanesib 0.146 | zotarolimus 0.034 | idasanutlin 0.004 | alisertib 0.032 | [2] -0.001 | gefitinib -0.08 | [3] -0.116 | lapatinib -0.038 | pictilisib -0.086

LACTB2 (UniProt Q53H82)
inactive: [1] -0.015 | filanesib -0.013 | zotarolimus -0.02 | idasanutlin 0.008 | alisertib -0.031 | [2] -0.004 | gefitinib 0.017 | [3] 0.034 | lapatinib -0.02 | pictilisib 0.027

LARGE2 (UniProt Q8N3Y3)
inactive: [1] 0.004 | filanesib 0.109

LARP7 isoform 3 (UniProt Q4G0J3)
inactive: filanesib 0.071 | zotarolimus 0.082 | idasanutlin -0.019 | alisertib -0.007 | [2] -0.165 | gefitinib 0.001 | [3] 0.042 | lapatinib 0.082 | pictilisib -0.041
active: [1] -0.258
